Test results published in patent US20230357519A1, “REMOVAL OF ODORANTS FROM POST-CONSUMER POLYOLEFIN WASTE” (Borealis AG, priority 2020, published 2023).

Test: Washing efficiency: reduction of contaminant content in recycled polyolefin after the wash, by HS-GC/MS
[1] = wash: Water/heptane 10:90 emulsion, ultrasound, 1 hour (Inventive Example 3)
[2] = wash: Water/heptane 50:50 emulsion, ultrasound, 1 hour (Inventive Example 2)
[3] = wash: Water/heptane 90:10 (UT), Ultraturrax machine at 65° C. (Inventive Example 4)
[4] = wash: Water/heptane 90:10 (UT/ice), Ultraturrax machine cooled with ice, approx. 20° C. (Inventive Example 5)
[5] = wash: Water/heptane 90:10 emulsion, ultrasound, 1 hour (Inventive Example 1)
[6] = wash: heptane 100 ml, ultrasound, 1 hour (Comparative Example 2)
[7] = wash: water 100 ml, ultrasound, 1 hour (Comparative Example 1)

SMILES	Washing efficiency (reduction of contaminant, based on content before the treatment) [1] [%]	Washing efficiency (reduction of contaminant, based on content before the treatment) [2] [%]	Washing efficiency (reduction of contaminant, based on content before the treatment) [3] [%]	Washing efficiency (reduction of contaminant, based on content before the treatment) [4] [%]	Washing efficiency (reduction of contaminant, based on content before the treatment) [5] [%]	Washing efficiency (reduction of contaminant, based on content before the treatment) [6] [%]	Washing efficiency (reduction of contaminant, based on content before the treatment) [7] [%]
CC(O)C(C)O (centres unmarked) [2,3-Butanediol]	100	100	100	100	100	98	100
CCCCC(C)CCCC(C)C (centres unmarked) [2,6-Dimethyl decane]	99	100	98	98	96	100	30
CCCCC(CC)CO (centres unmarked) [2-Ethyl-1-hexanol]	99	98	96	94	95	92	49
CCCCCCCC(C)=O [2-Nonanone]	100	100	100	100	100	100	62
CCCC(C)=O [2-Pentanone]	99	99	99	98	96	92	78
CCCCC(CCCC)CC(C)C [5-(2-Methylpropyl)-nonane]	98	98	96	100	95	89	8
C=C(C)[C@H]1CC=C(C)CC1 [D-Limonene]	100	99	99	97	100	100	42
C=Cc1ccccc1 [Styrene]	98	99	98	98	98	96	48
